# According to the supplement of paper PMC8728848:
# This is one part of the list.
# B1: his-Lectin-24A (Drosophila melanogaster) (protein)
# chain: MFRLSVLVLNLLLVSHEFSAGTAKIEIQPLPALCNGYCFPTLKPVMEYVAIHQDKWNTCTEILANEARKDQIQLNIQLDALKADVSNIKASQLSKDEKLDRMEREQFAMHESLETINRYLTVKLDRTKLQLEAIKNTMDYMKAQMDGYFSAINGVQCLQPGFEKIGDRYFYIEEDVELNWLDAQAKCRRMGGHLASIKTKQEFDAIVEKLDDSKSYFLGVNENTKTGDFVSAASGKSCLYHEWGPGEPHHNNDQERCVSILRKLMHVGNCTYEKRFICQYGI
# Key:
# Test in all cases: glycan array binding signal (z-score within array); higher = stronger binding
# Settings in all cases: glycan notation: IUPAC condensed, linker removed
# [1] = target: Neu5Ac(a2-3)Gal(b1-3)GalNAc
# Summary of the method: (§1)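 Arrays were curated from the Consortium for Functional Glycomics database, 3228 in total, and kept only where the protein sequence was available. Binding is expressed as a within-array Z-score. This score was averaged across arrays of the same protein sequence at different concentrations or buffers and across linkers, and negative values can be read as non-binding.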
# [2] = target: Neu5Ac(a2-3)Gal(b1-3)GalNAc(b1-3)Gal(a1-4)Gal(b1-4)Glc
# Summary of the method: as §1
# [3] = target: Neu5Ac(a2-3)Gal(b1-3)GalNAc(b1-4)Gal(b1-4)Glc
# Summary of the method: as §1
# [4] = target: Neu5Ac(a2-3)Gal(b1-3)GalNAc(b1-4)[Neu5Ac(a2-3)]Gal(b1-4)Glc
# Summary of the method: as §1
# [5] = target: Neu5Ac(a2-3)Gal(b1-3)GalNAc(b1-4)[Neu5Ac(a2-8)Neu5Ac(a2-3)]Gal(b1-4)Glc
# Summary of the method: as §1
# [6] = target: Neu5Ac(a2-3)Gal(b1-3)GalNAc6S
# Summary of the method: as §1
# [7] = target: Neu5Ac(a2-3)Gal(b1-3)GlcNAc
# Summary of the method: as §1
# [8] = target: Neu5Ac(a2-3)Gal(b1-3)GlcNAc(b1-2)Man
# Summary of the method: as §1
# [9] = target: Neu5Ac(a2-3)Gal(b1-3)GlcNAc(b1-2)Man(a1-3)[GlcNAc(b1-4)][Neu5Ac(a2-3)Gal(b1-3)GlcNAc(b1-2)Man(a1-6)]Man(b1-4)GlcNAc(b1-4)GlcNAc
# Summary of the method: as §1
# [10] = target: Neu5Ac(a2-3)Gal(b1-3)GlcNAc(b1-2)Man(a1-3)[Neu5Ac(a2-3)Gal(b1-3)GlcNAc(b1-2)Man(a1-6)]Man(b1-4)GlcNAc(b1-4)GlcNAc
# Summary of the method: as §1
# [11] = target: Neu5Ac(a2-3)Gal(b1-3)GlcNAc(b1-2)[Neu5Ac(a2-3)Gal(b1-3)GlcNAc(b1-4)]Man(a1-6)[Neu5Ac(a2-3)Gal(b1-3)GlcNAc(b1-2)Man(a1-3)]Man(b1-4)GlcNAc(b1-4)GlcNAc
# Summary of the method: as §1
# [12] = target: Neu5Ac(a2-3)Gal(b1-3)GlcNAc(b1-3)Gal(b1-3)GlcNAc
# Summary of the method: as §1
# [13] = target: Neu5Ac(a2-3)Gal(b1-3)GlcNAc(b1-3)Gal(b1-4)GlcNAc
# Summary of the method: as §1
# [14] = target: Neu5Ac(a2-3)Gal(b1-3)GlcNAc(b1-3)GalNAc
# Summary of the method: as §1
# [15] = target: Neu5Ac(a2-3)Gal(b1-3)GlcNAc(b1-6)GalNAc
# Summary of the method: as §1
# [16] = target: Neu5Ac(a2-3)Gal(b1-3)GlcNAc6S
# Summary of the method: as §1
# [17] = target: Neu5Ac(a2-3)Gal(b1-3)[Fuc(a1-4)]GlcNAc
# Summary of the method: as §1
# [18] = target: Neu5Ac(a2-3)Gal(b1-3)[Fuc(a1-4)]GlcNAc(b1-3)Gal(b1-3)[Fuc(a1-4)]GlcNAc
# Summary of the method: as §1
# [19] = target: Neu5Ac(a2-3)Gal(b1-3)[Fuc(a1-4)]GlcNAc(b1-3)Gal(b1-4)[Fuc(a1-3)]GlcNAc
# Summary of the method: as §1
# [20] = target: Neu5Ac(a2-3)Gal(b1-3)[GlcNAc(b1-6)]GalNAc
# Summary of the method: as §1
# [21] = target: Neu5Ac(a2-3)Gal(b1-3)[Neu5Ac(a2-6)]GalNAc
# Summary of the method: as §1
# [22] = target: Neu5Ac(a2-3)Gal(b1-3)[Neu5Ac(a2-6)]GlcNAc(b1-3)[Fuc(a1-3)[Gal(b1-4)]GlcNAc(b1-6)]Gal(b1-4)Glc
# Summary of the method: as §1
# [23] = target: Neu5Ac(a2-3)Gal(b1-3)]Neu5Ac(a2-3)Gal(b1-4)]GlcNAc
# Summary of the method: as §1
# Neu5Ac(a2-3)Gal(b1-4)Glc = target: Neu5Ac(a2-3)Gal(b1-4)Glc
# Summary of the method: as §1
# [24] = target: Neu5Ac(a2-3)Gal(b1-4)GlcNAc
# Summary of the method: as §1
# [25] = target: Neu5Ac(a2-3)Gal(b1-4)GlcNAc(b1-2)Man
# Summary of the method: as §1
# [26] = target: Neu5Ac(a2-3)Gal(b1-4)GlcNAc(b1-2)Man(a1-3)[GlcNAc(b1-4)][Neu5Ac(a2-3)Gal(b1-4)GlcNAc(b1-2)Man(a1-6)]Man(b1-4)GlcNAc(b1-4)GlcNAc
# Summary of the method: as §1
# [27] = target: Neu5Ac(a2-3)Gal(b1-4)GlcNAc(b1-2)Man(a1-3)[Neu5Ac(a2-3)Gal(b1-4)GlcNAc(b1-2)Man(a1-6)]Man(b1-4)GlcNAc(b1-4)GlcNAc
# Summary of the method: as §1
# [28] = target: Neu5Ac(a2-3)Gal(b1-4)GlcNAc(b1-2)Man(a1-3)[Neu5Ac(a2-3)Gal(b1-4)GlcNAc(b1-2)Man(a1-6)]Man(b1-4)GlcNAc(b1-4)[Fuc(a1-6)]GlcNAc
# Summary of the method: as §1
# [29] = target: Neu5Ac(a2-3)Gal(b1-4)GlcNAc(b1-2)Man(a1-3)[Neu5Ac(a2-6)Gal(b1-4)GlcNAc(b1-2)Man(a1-6)]Man(b1-4)GlcNAc(b1-4)GlcNAc
# Summary of the method: as §1
# [30] = target: Neu5Ac(a2-3)Gal(b1-4)GlcNAc(b1-2)[Neu5Ac(a2-3)Gal(b1-4)GlcNAc(b1-4)]Man(a1-3)[GlcNAc(b1-4)][Neu5Ac(a2-3)Gal(b1-4)GlcNAc(b1-2)[Neu5Ac(a2-3)Gal(b1-4)GlcNAc(b1-6)]Man(a1-6)]Man(b1-4)GlcNAc(b1-4)GlcNAc
# Summary of the method: as §1
# [31] = target: Neu5Ac(a2-3)Gal(b1-4)GlcNAc(b1-2)[Neu5Ac(a2-3)Gal(b1-4)GlcNAc(b1-4)]Man(a1-3)[GlcNAc(b1-4)][Neu5Ac(a2-3)Gal(b1-4)GlcNAc(b1-4)Man(a1-6)]Man(b1-4)GlcNAc(b1-4)GlcNAc
# Summary of the method: as §1
# [32] = target: Neu5Ac(a2-3)Gal(b1-4)GlcNAc(b1-2)[Neu5Ac(a2-3)Gal(b1-4)GlcNAc(b1-6)]Man(a1-6)[Neu5Ac(a2-3)Gal(b1-4)GlcNAc(b1-2)Man(a1-3)][GlcNAc(b1-4)]Man(b1-4)GlcNAc(b1-4)GlcNAc
# Summary of the method: as §1
# [33] = target: Neu5Ac(a2-3)Gal(b1-4)GlcNAc(b1-3)Gal
# Summary of the method: as §1
# [34] = target: Neu5Ac(a2-3)Gal(b1-4)GlcNAc(b1-3)Gal(b1-3)GlcNAc
# Summary of the method: as §1
# [35] = target: Neu5Ac(a2-3)Gal(b1-4)GlcNAc(b1-3)Gal(b1-4)GlcNAc
# Summary of the method: as §1
# [36] = target: Neu5Ac(a2-3)Gal(b1-4)GlcNAc(b1-3)Gal(b1-4)GlcNAc(b1-2)Man(a1-3)[Neu5Ac(a2-3)Gal(b1-4)GlcNAc(b1-3)Gal(b1-4)GlcNAc(b1-2)Man(a1-6)]Man(b1-4)GlcNAc(b1-4)GlcNAc
# Summary of the method: as §1
binder,measurement,setting,value
B1,glycan array binding signal (z-score),[1],0.679
same,glycan array binding signal (z-score),[2],0.771
same,glycan array binding signal (z-score),[3],-2.7
same,glycan array binding signal (z-score),[4],-0.129
same,glycan array binding signal (z-score),[5],-0.976
same,glycan array binding signal (z-score),[6],0.385
same,glycan array binding signal (z-score),[7],1.27
same,glycan array binding signal (z-score),[8],-0.65
same,glycan array binding signal (z-score),[9],0.319
same,glycan array binding signal (z-score),[10],-0.522
same,glycan array binding signal (z-score),[11],-0.447
same,glycan array binding signal (z-score),[12],-2.22
same,glycan array binding signal (z-score),[13],-0.473
same,glycan array binding signal (z-score),[14],0.022
same,glycan array binding signal (z-score),[15],-1.18
same,glycan array binding signal (z-score),[16],-0.858
same,glycan array binding signal (z-score),[17],-0.669
same,glycan array binding signal (z-score),[18],-0.561
same,glycan array binding signal (z-score),[19],-0.437
same,glycan array binding signal (z-score),[20],-0.036
same,glycan array binding signal (z-score),[21],-0.881
same,glycan array binding signal (z-score),[22],-0.346
same,glycan array binding signal (z-score),[23],-0.55
same,glycan array binding signal (z-score),Neu5Ac(a2-3)Gal(b1-4)Glc,0.289
same,glycan array binding signal (z-score),[24],0.165
same,glycan array binding signal (z-score),[25],-1.37
same,glycan array binding signal (z-score),[26],-0.23
same,glycan array binding signal (z-score),[27],-0.321
same,glycan array binding signal (z-score),[28],0.161
same,glycan array binding signal (z-score),[29],0.85
same,glycan array binding signal (z-score),[30],2.26
same,glycan array binding signal (z-score),[31],0.486
same,glycan array binding signal (z-score),[32],-0.362
same,glycan array binding signal (z-score),[33],-1.34
same,glycan array binding signal (z-score),[34],0.115
same,glycan array binding signal (z-score),[35],-0.872
same,glycan array binding signal (z-score),[36],-0.24

# Given bar-delimited: part of the list above
binder | measurement | setting | value
B1 | glycan array binding signal (z-score) | [8] | -0.65
same | glycan array binding signal (z-score) | [13] | -0.473
same | glycan array binding signal (z-score) | [27] | -0.321
